The assay has as its system HEK293A TEAD-LUC reporter. Kind of assay: TEAD-luciferase reporter activity (YAP activation), robust Z score vs plate; higher = stronger YAP/TEAD activation. The note with it: 24 h.

This is one part of the list. Repeats in this data set agree poorly, so a single value says little.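 Human kidney-derived cells stably carry a construct in which eight TEAD-binding elements drive luciferase, measured by luminescence in a drug-repurposing library screen. A hit is any compound whose signal exceeds the plate mean by more than five robust Z scores.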

Here are results for 27 compounds from the supplement of paper PMC10735217.

Turning to `CC(C)C(=O)c1ccc(O)c(O)c1`, the TEAD-luciferase reporter activity (compound concentration: 200 nM) was inactive: -0.496, the TEAD-luciferase reporter activity (compound concentration: 2 uM) was inactive: -1.3 and the TEAD-luciferase reporter activity (compound concentration: 10 uM) was inactive: -0.441.

Turning to `C[C@]12CC[C@@H]3c4ccc(OS(N)(=O)=O)cc4CC[C@H]3[C@@H]1CC[C@@H]2O`, the TEAD-luciferase reporter activity runs as follows: (compound concentration: 200 nM) inactive: -1.22; (compound concentration: 2 uM) inactive: 1.25; (compound concentration: 10 uM) inactive: -1.06.

As for `CC1(c2ccc(O)cc2)C(=O)c2c(N3CCNCC3)cc(Cl)cc2N(Cc2ccccc2)C1=O` (stereo not given), the TEAD-luciferase reporter activity by setting is: (compound concentration: 200 nM) inactive: -0.255; (compound concentration: 2 uM) inactive: -0.456; (compound concentration: 10 uM) inactive: 0.536.

As to `CCCCCCCCCC1OCCO1` [SEPA absorption enhancers], the TEAD-luciferase reporter activity is, setting by setting: (compound concentration: 200 nM) inactive: -0.562; (compound concentration: 2 uM) inactive: 0.492; (compound concentration: 10 uM) inactive: -0.572.

As to `Cc1c(F)cccc1CCCCOc1ccc(C#Cc2ccc(F)c3c(CCCC(=O)O)c(C)n(CCCC(=O)O)c23)cc1` [Gemilukast], the TEAD-luciferase reporter activity was inactive: 0.42 (compound concentration: 200 nM), inactive: -0.487 (compound concentration: 2 uM) and inactive: 0.432 (compound concentration: 10 uM).

Take `CC(C)Cc1sc(N)nc1-c1ccc(P(=O)(O)O)o1`: the TEAD-luciferase reporter activity reads like this: (compound concentration: 200 nM) inactive: -0.8; (compound concentration: 2 uM) inactive: 1.16; (compound concentration: 10 uM) inactive: -0.874.

As for `CNC(=O)c1c(I)c(C(=O)NCC(=O)Nc2c(I)c(C(=O)O)c(I)c(C(=O)NCCO)c2I)c(I)c(N(C)C(C)=O)c1I` [Ioxaglic Acid], the TEAD-luciferase reporter activity (compound concentration: 200 nM) is inactive: -1.5, the TEAD-luciferase reporter activity (compound concentration: 2 uM) was inactive: 0.883 and the TEAD-luciferase reporter activity (compound concentration: 10 uM) is inactive: 0.132.

Consider `O=c1[nH]c(=O)n([C@@H]2O[C@H](CO)[C@@H](O)[C@@H]2F)cc1I` [fialuridine], for which the TEAD-luciferase reporter activity is inactive: 3.81 (compound concentration: 200 nM), inactive: -0.257 (compound concentration: 2 uM) and inactive: 0.74 (compound concentration: 10 uM).

On to `COc1cccc2c1CC(N)CS2` (stereo not given), for which the TEAD-luciferase reporter activity (compound concentration: 200 nM) was inactive: -0.523, the TEAD-luciferase reporter activity (compound concentration: 2 uM) is inactive: -0.643 and the TEAD-luciferase reporter activity (compound concentration: 10 uM) is inactive: -0.649.

With `CC(C)(C)c1cc(/C(=N/O)c2ccccc2)cc(C(C)(C)C)c1O`, the TEAD-luciferase reporter activity runs as follows: (compound concentration: 200 nM) inactive: -0.298; (compound concentration: 2 uM) inactive: -1.57; (compound concentration: 10 uM) inactive: -1.96.

`O=C1[O][Cr]23([NH]C1Cc1cnc[nH]1)([NH]C(Cc1cnc[nH]1)C(=O)[O]2)[NH]C(Cc1cnc[nH]1)C(=O)[O]3` (stereo not given) [Chromium histidinate]: the TEAD-luciferase reporter activity was inactive: -0.923 (compound concentration: 200 nM), inactive: -0.126 (compound concentration: 2 uM) and inactive: 2.28 (compound concentration: 10 uM).

Turning to `CN(CCCCCCCCCCN(C)C(=O)Oc1cccc([N+](C)(C)C)c1)C(=O)Oc1cccc([N+](C)(C)C)c1`, the TEAD-luciferase reporter activity is, setting by setting: (compound concentration: 200 nM) inactive: -0.189; (compound concentration: 2 uM) inactive: -0.0884; (compound concentration: 10 uM) inactive: -0.603.

Turning to `OCCN1CCN(CC/C=C2\c3ccccc3Sc3ccc(Cl)cc32)CC1`, the TEAD-luciferase reporter activity (compound concentration: 200 nM) was inactive: 1.24, the TEAD-luciferase reporter activity (compound concentration: 2 uM) was inactive: -1.7 and the TEAD-luciferase reporter activity (compound concentration: 10 uM) was inactive: 0.159.

Take `CC1C(C2C(F)CC(=C(N)O)C3=NC4=C(CC[C@H](C(C)(C)O)C4)C32)CCCC1N1C(=O)C2CCCC(F)C2N(C)C1=O` (stereo not given in full): the TEAD-luciferase reporter activity is, setting by setting: (compound concentration: 200 nM) inactive: -0.39; (compound concentration: 10 uM) inactive: -0.857.

Turning to `N[C@H]1CC[C@H](CNC(=O)[C@@H]2CCCN2C(=O)C2(O)c3ccccc3-c3ccccc32)CC1`, the TEAD-luciferase reporter activity (compound concentration: 200 nM) was inactive: 2.01, the TEAD-luciferase reporter activity (compound concentration: 2 uM) is inactive: -0.798 and the TEAD-luciferase reporter activity (compound concentration: 10 uM) is inactive: 1.77.

`CN(C)C/C=C/C(=O)Nc1cc2c(Nc3ccc(F)c(Cl)c3)ncnc2cc1C#C[C@@H]1[C@H]2COC[C@@H]12`: the TEAD-luciferase reporter activity is inactive: -2.87 (compound concentration: 200 nM), inactive: -1.06 (compound concentration: 2 uM) and inactive: -1.34 (compound concentration: 10 uM).

For the compound `Cc1ccc2c(c1)c1c3n2CCNC3CCC1` (stereo not given) [pirlindole], the TEAD-luciferase reporter activity by setting is: (compound concentration: 200 nM) inactive: -1.94; (compound concentration: 2 uM) inactive: 1.5; (compound concentration: 10 uM) inactive: 2.29.

With `OCC(O)C(O)C(O)C(O)CO` (stereo not given) [mannitol], the TEAD-luciferase reporter activity (compound concentration: 2 uM) was inactive: -2.09.

Consider `CC(=O)NCCC(=O)NC(Cc1c[nH]cn1)C(=O)O` (stereo not given) [N-Acetylcarnosine], for which the TEAD-luciferase reporter activity runs as follows: (compound concentration: 200 nM) inactive: -0.0233; (compound concentration: 2 uM) inactive: -0.548; (compound concentration: 10 uM) inactive: 0.646.

In the case of `CC(C)CN(Cc1ccccc1-c1ccccc1)[C@@H]1C[C@@H](CNC(=O)/C=C/c2ccc(/C=C3\SC(=O)NC3=O)cc2)N(C(=O)c2ccccc2C(=O)c2ccc(F)cc2F)C1`, the TEAD-luciferase reporter activity reads like this: (compound concentration: 200 nM) inactive: -1.37; (compound concentration: 2 uM) inactive: -1.29; (compound concentration: 10 uM) inactive: -0.678.

`Cc1nn(C)c(NC(=O)Cn2c(C(C)C)nc3ccccc32)c1-c1ccc(Cl)cc1F`: the TEAD-luciferase reporter activity (compound concentration: 200 nM) is inactive: -0.986, the TEAD-luciferase reporter activity (compound concentration: 2 uM) is inactive: 0.375 and the TEAD-luciferase reporter activity (compound concentration: 10 uM) is inactive: 0.721.

As to `CCOP(=O)(Cc1ccc(NC(=O)[C@H]2Cc3cc4c(cc3C(=O)[C@H](C)S2)OCO4)cc1)OCC`, the TEAD-luciferase reporter activity was inactive: -1.36 (compound concentration: 200 nM), inactive: -1.45 (compound concentration: 2 uM) and active: 17.8 (compound concentration: 10 uM).

`N#CCNC(=O)c1ccc(-c2ccnc(Nc3ccc(N4CCOCC4)cc3)n2)cc1` [Momelotinib]: the TEAD-luciferase reporter activity (compound concentration: 200 nM) is inactive: -1.28 and the TEAD-luciferase reporter activity (compound concentration: 10 uM) is inactive: 1.9.

With `N#CCNC(=O)c1ccc(-c2ccnc(Nc3ccc(N4CCOCC4)cc3)n2)cc1` [momelotinib], the TEAD-luciferase reporter activity (compound concentration: 2 uM) is inactive: 0.1.

For `Cc1c(NC(=O)c2cccnc2)c(=O)n(-c2ccccc2)n1C`, the TEAD-luciferase reporter activity is inactive: 1.05 (compound concentration: 200 nM), inactive: -1.51 (compound concentration: 2 uM) and inactive: 0.308 (compound concentration: 10 uM).

Take `COCC(COC)n1nnc2c(Nc3c(C)cc(C)cc3Cl)nc(C)cc21`: the TEAD-luciferase reporter activity is inactive: -0.955 (compound concentration: 200 nM), inactive: 2.14 (compound concentration: 2 uM) and active: 5.55 (compound concentration: 10 uM).

Consider `CC/C(=C(\C#N)c1ccc(OCCN(CC)CC)cc1)c1ccc(Cl)cc1`, for which the TEAD-luciferase reporter activity by setting is: (compound concentration: 200 nM) inactive: -0.635; (compound concentration: 2 uM) inactive: -0.874; (compound concentration: 10 uM) inactive: 2.68.
